From PubChem BioAssay AID504847 (National Center for Advancing Translational Sciences (NCATS), 2011)
Where “and” joins values, the source holds several entries; their conditions need not be identical. Identical values can stand only once. Out of some 400,000 compounds screened, about 3,700 (0.93%) were called active. Inconclusive results, whose numbers are uncertain, are shown with a selection of clear calls. The call rests on the fitted dose curve; in most records, active means well fitted inhibition curve with a large enough effect; inconclusive means small, poorly fitted or top-dose-only effect, or another doubt; inactive means no such curve, though single readings can be large or run the other way. A potency beside an inconclusive call is a rough fit, not a confirmed value. Some compounds were tested as several samples or in several runs, with calls that do not always agree.

Chains of the proteins cited; added tags and fusions are not shown.
UniProt P11473, whole entry, looked up: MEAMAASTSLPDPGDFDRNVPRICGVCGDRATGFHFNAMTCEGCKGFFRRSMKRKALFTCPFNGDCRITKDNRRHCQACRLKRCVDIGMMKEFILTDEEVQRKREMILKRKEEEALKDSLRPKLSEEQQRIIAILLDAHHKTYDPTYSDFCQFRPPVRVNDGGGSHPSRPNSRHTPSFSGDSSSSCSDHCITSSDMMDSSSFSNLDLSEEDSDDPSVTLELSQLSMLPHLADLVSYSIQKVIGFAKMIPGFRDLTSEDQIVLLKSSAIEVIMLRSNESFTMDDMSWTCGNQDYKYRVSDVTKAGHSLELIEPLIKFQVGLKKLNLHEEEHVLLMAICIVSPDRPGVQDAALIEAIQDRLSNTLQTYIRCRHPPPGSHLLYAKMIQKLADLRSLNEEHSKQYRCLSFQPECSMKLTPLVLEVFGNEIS

What follows are molecules tested against Vitamin D3 receptor (Homo sapiens) (UniProt P11473) (assay: Inhibitors of the vitamin D receptor (VDR): qHTS). Conditions: VDR-SRC2-3 peptide fluorescence polarization, 2 h; max response, negative = inhibition: hits give low values.
How it was run: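 Measured by FP: displacement of SRC2-3 coactivator peptide from VDR by library compounds, following a two-hour ambient incubation.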
On the % scale 0 is the no-effect control and ±100 the full control effect; potency means the concentration at half of the fitted maximal effect.

Potency, active:
Cn1c(=O)c([N+](=O)[O-])c(-n2ccnc2)c2ccccc21 20 µM
Cc1cc(O)c(-c2cc(O)c(C)cc2O)cc1O 25.1 µM
Cc1cc(NC(=O)Nc2ccc(N(C)C)cc2)c2cc(F)cc(F)c2n1 17.8 µM
Cc1cc(O)c(C=O)c2c1C(=O)Oc1c(C)c(O)c3c(c1O2)C(O)OC3=O (configuration not stated) 6.31 µM
Cc1ccccc1CS(=O)(=O)c1nnc([C@H](Cc2ccccc2)NC(=O)OC(C)(C)C)o1 20 µM
CNC[C@H](O)c1ccc(O)c(O)c1 31.6 µM
COc1ccc(NC(=S)Nc2ccc3nsnc3c2)cc1 89.1 µM

Potency, inconclusive:
COc1ccc(C(=O)N2CCC[C@@]3(CCN(Cc4cc(C(F)(F)F)cc(C(F)(F)F)c4)C3)C2)cc1 22.4 µM [inhibitor, full curve]
CCCOc1ccc(CNC(=O)C2CCN(c3nn4c(=O)cc(C)nc4s3)CC2)cc1 17.8 µM [inhibitor, partial curve, poor fit]
CC(C)c1ccc(S(=O)(=O)N2CCN(C(=O)C3CC3C)CC2)cc1 (configuration not stated) 79.4 µM [inhibitor, single point]
O=C(CN1CCN(C(=O)CNC(=O)c2ccc3c(c2)OCO3)CC1)Nc1ccc(F)cc1 100 µM [inhibitor, single point]
CC(C)CC(=O)NC(=S)N(Cc1ccccc1)Cc1ccccc1 70.8 µM [inhibitor, single point]
CC1=C(c2ccc(C(C)C)cc2)S(=O)(=O)N=C1N1CCN(C(=O)c2ccco2)CC1 8.91 µM [inhibitor, full curve, poor fit]
COc1ccc(C(=O)C[n+]2cn(C(F)F)c3ccccc32)c(F)c1 89.1 µM [inhibitor, partial curve, poor fit]
CCN(CC)S(=O)(=O)c1ccc(NC(=O)c2cnc(C)cn2)cc1 70.8 µM [inhibitor, partial curve, poor fit]
Cc1noc(C)c1-c1nc(N(C)C)c2ccccc2n1 44.7 µM [inhibitor, partial curve, poor fit]
CCOC(=O)C(=Cc1c[nH]c2ccc(S(=O)(=O)N(C)C)cc12)C(=O)OCC 70.8 µM [inhibitor, single point]
Cn1c(=O)c2sccc2n2c(CCC(=O)NCc3ccccc3)nnc12 89.1 µM [inhibitor, single point]
Cc1ccc(CNC(=O)CS(=O)Cc2nc(-c3cccs3)oc2C)cc1 (configuration not stated) 63.1 µM [inhibitor, partial curve, poor fit]
CC1CCCC2(C1)NC(=S)N(c1ccccc1)N2 (configuration not stated) 50.1 µM [inhibitor, partial curve, poor fit]
Cc1ccc(NC(=O)CN(C)C(=O)c2ccc(COc3ccccc3)cc2)cc1 25.1 µM [inhibitor, partial curve, poor fit]
COC(=O)c1sc(-c2cccs2)cc1NC(=O)/C=C/C(=O)O 17.8 µM [inhibitor, full curve, poor fit]
COc1cc(/C=C/C=C2/CC/C(=C/C=C/c3ccc(O)c(OC)c3)C2=O)ccc1O 89.1 µM [inhibitor, single point]
CC[C@]1(c2cccc(C)c2)C(=O)N(C(=O)OC)N1C(=O)OC 89.1 µM [inhibitor, partial curve]
CCNc1ccc(Br)cc(C(=O)/C=C/c2c(Cl)cccc2Cl)c1=O 79.4 µM [inhibitor, partial curve, poor fit]
COc1ccccc1-c1noc(-c2ccccc2C(=O)NCC2CCCO2)n1 (configuration not stated) 3.55 µM [inhibitor, partial curve, poor fit]
COc1ccc(C2CC(=O)c3c([nH]c(C(=O)OCCOc4ccccc4)c3C)C2)cc1OC (configuration not stated) 100 µM [inhibitor, partial curve, poor fit]
O=C(NCCc1cn[nH]c1)C1CCC(=O)N(CCc2cccc(F)c2)C1 (configuration not stated) 22.4 µM [inhibitor, partial curve, poor fit]
Cc1nn(-c2ccccc2)c(N2CCCCC2)c1/C=N/NC(=O)c1ccncc1 39.8 µM [inhibitor, partial curve]
Cc1ccc(-n2cccn2)c([C@@H]2C[C@H]3CN(C)C(=O)[C@]34CCCN24)c1 79.4 µM [inhibitor, single point]
CCCCCn1c(N)c(C#N)c2nc3ccccc3nc21 89.1 µM [inhibitor, single point]
Cc1ccc2c(c1C)-c1c(ccc(C)c1C)C(=O)C2=O 17.8 µM [inhibitor, full curve, poor fit]
CC(C)(C)c1cc[n+](/C(C(=S)NC2CC2)=C(/[O-])c2ccc(Cl)s2)cc1 100 µM [inhibitor, single point]
O=C(O)c1ccc(N/N=C/C2=C(N3CCOCC3)C(=C\c3ccccc3)/CC2)cc1 89.1 µM [inhibitor, partial curve, poor fit]
O=C(O)CCN1C(=O)/C(=C/c2ccc(-c3nc4ccccc4s3)o2)SC1=S 89.1 µM [inhibitor, single point]
CC(C)Cc1ccc(C(C)CC2=CCC(CN(C)C)C2=O)cc1 (configuration not stated) 20 µM [inhibitor, full curve, poor fit]
N[C@@H](CCC(=O)N[C@H](CSN=O)C(=O)NCC(=O)O)C(=O)O 50.1 µM [inhibitor, full curve, poor fit]
COc1ccc(S(N)(=O)=O)cc1N(C)S(=O)(=O)c1ccccc1 63.1 µM [inhibitor, partial curve, poor fit]
CCOC(=O)C(NC(C)=O)(Nc1ccc(S(=O)(=O)Nc2ncccn2)cc1)C(F)(F)F (configuration not stated) 89.1 µM [inhibitor, single point]
CSc1nc(-c2ccco2)nn1S(=O)(=O)c1ccc(C)cc1 79.4 µM [inhibitor, single point]
O=C(c1cc(Br)ccc1Cl)N1CCN(c2ncccn2)CC1 2 µM [inhibitor, partial curve, poor fit]
c1ccc2c(c1)OCC(c1nn3c(Cn4nnc5ccccc54)nnc3s1)O2 (configuration not stated) 63.1 µM [inhibitor, partial curve, poor fit]
O=C(NNc1cccc(Cl)n1)c1ccccc1CC[N+](=O)[O-] 31.6 µM [inhibitor, single point]
C=C(C(=O)c1ccccc1)C(NC(C)(C)C)c1ccccc1 (configuration not stated) 89.1 µM [inhibitor, single point]
Cc1ccc(-n2c(O)c(/C=N/Nc3ccc(S(=O)(=O)N4CCOCC4)cc3[N+](=O)[O-])c3ccccc3c2=O)c(C)c1 79.4 µM [inhibitor, partial curve]
CCCN1CNc2c(c(=O)[nH]c(=S)n2CCc2cc(C)cc(C)c2)C1 89.1 µM [inhibitor, partial curve]

Max response, negative = inhibition, inactive:
CCOc1cc2c(cc1OCC)CN(C(=O)c1cccc(S(=O)(=O)N3CCCC3)c1)CC2 -19.1%
CC1CCN(CCCNC(=O)C2CCN(S(=O)(=O)N3CCC4(CC3)OCCO4)CC2)CC1 -10.9%
CC1=C/C(=N\N=C2\NC(=O)C(CC(=O)Nc3ccccc3)S2)CC(C)(C)C1 (configuration not stated) -16.9%
COc1ccc(CN(C)C(=O)Cn2cc(C)c(=O)[nH]c2=O)cc1OC -27.4%
CCOC(=O)Nc1ccc2c(c1)OCO2 13%
O=C(NCc1cccc(Cl)c1)NCc1cccc(Cl)c1 6.51%
COc1ccc(C)cc1-n1c(-c2ccncc2)n[nH]c1=S -5.23%
COc1cc(OC)c2c(-c3cccc(/C=C/c4ccc(F)cc4)c3)cc(=O)oc2c1 -6.25% and -1.94%
CCOc1ccc(C(=O)NCC(c2cccs2)N2CCOCC2)cc1 (configuration not stated) -2.27%
CC(C)(C)c1ccc(C(=O)NC(=S)Nn2cnnc2)cc1 -6.61%
CN1CCN(CCC(=O)N/N=C/c2ccccn2)CC1 0.585%
O=c1c2ccccc2cnn1Cc1n[nH]c(=S)n1-c1ccccc1Cl -0.651%
COc1cccc(CNC(=O)c2cccn2-c2nnc(N3CCCC3)s2)c1 4.53%
CCN(CC(=O)Nc1ccc(NC(C)=O)cc1)C(=O)c1cc2ccccc2oc1=O 8.66%
O=C(c1ccc(F)cc1)N1CCN(C2CCCCC2)CC1 2.93%
Cc1ccc(C(=O)NC(=S)Nc2ccccc2C(F)(F)F)cc1C -4.18%
O=C(Nc1nc(-c2ccccn2)cs1)C1CCCC1 -13.6%
O=C(NCCc1ccccc1)/C(=C\c1ccc([N+](=O)[O-])cc1)NC(=O)c1ccco1 3.67%
Cc1cc(C)cc(NC(=O)c2sc3nc(-c4cc5ccccc5oc4=O)[nH]c(=O)c3c2C)c1 -3.48%
COc1ccc(-c2csc(Nc3ncccc3C)n2)cc1 7.43%
Cc1cccc(C(=O)O/N=C(\N)c2cccc([N+](=O)[O-])c2)c1 -0.605%
